According to paper PMC2935968:
Where a chain is given by its changes, count along the chain named. Results are given in words; binding and its absence hold for the method and conditions named. Some entries that bind do so weakly or less than the wild type. For some of these results: Sequences can lack the tags named with a protein.

Tests used:
[1] = biological target: GST-Rar1 (wild type) (Arabidopsis thaliana) (UniProt Q9SE33); experiment: pull-down; GST-Rar1 as bait, Hsp90, increasing amounts of untagged Rar1 in competition; both purified
[2] = biological target: GST-Rar1 (wild type) (Arabidopsis thaliana) (UniProt Q9SE33); experiment: pull-down; GST-Rar1 as bait, Hsp90, isolated CHORDI added in competition (Figure S4C); both purified
[3] = biological target: GST-Rar1 (wild type) (Arabidopsis thaliana) (UniProt Q9SE33); experiment: pull-down; GST-Rar1 constructs as bait, one partner alone (Hsp90 or Sgt1); recombinant proteins; conditions in the Supplemental Information; both purified
[4] = biological target: T1, GST-Rar1 W217T (Arabidopsis thaliana) (UniProt Q9SE33); experiment: as above
T1 sequence: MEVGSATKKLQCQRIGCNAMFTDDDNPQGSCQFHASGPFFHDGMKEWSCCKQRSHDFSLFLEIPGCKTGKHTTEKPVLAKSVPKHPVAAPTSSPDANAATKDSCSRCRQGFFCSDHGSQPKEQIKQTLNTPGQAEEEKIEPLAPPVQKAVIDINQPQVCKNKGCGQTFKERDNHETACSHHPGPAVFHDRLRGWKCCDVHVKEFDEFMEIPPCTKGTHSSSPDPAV

[5] = biological target: GST-Rar1 (wild type) (Arabidopsis thaliana) (UniProt Q9SE33); experiment: pull-down; GST-Rar1 constructs as bait, Hsp90 and Sgt1 both present; both purified
[6] = biological target: T2, GST-Rar1 K45E (Arabidopsis thaliana) (UniProt Q9SE33); experiment: as above
T2 sequence: T1 sequence with K45E, T217W

[7] = biological target: GST-Rar1 (wild type) (Arabidopsis thaliana) (UniProt Q9SE33); experiment: pull-down; GST-Rar1 as bait, Hsp90, untagged Rar1 and Sgt1-CS present; both purified

Measured: binding

Hsp90 (from UniProt Q7XJ80 1-700)
binds: all assays above
